{"source": "patent US9161906B2", "about": "“Pharmaceutical formulations based on apolar and polar lipids for ophthalmic use” (SIFI, S.P.A., priority 2007, dated 2015)", "test_system": "experimental uveitis in rabbits", "conditions": "inhibition of PGE2 accumulation in the aqueous humour", "data": [{"smiles": "C[C@@H]1C[C@H]2[C@@H]3CCC4=CC(=O)C=C[C@]4(C)[C@@]3(F)[C@@H](O)C[C@]2(C)[C@@]1(O)C(=O)COP(=O)(O)O", "note": "[dexamethasone sodium phosphate]", "values": [{"measurement": "concentrations exerting significant anti-inflammatory effects", "value": "≥ 0.001", "unit": "%"}]}]}
